PubChem BioAssay AID1259254, NCATS – 2017

Test: 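Genome-wide screen for genes that prevent DNA re-replication in cancer cells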 (primary screen)
System: human HCT116 colorectal cancer cells
Reagents: single siRNA against human genes
Time to read-out: 3 days
Measurement: 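Imaged Hoechst DNA stain sorts each cell into a cycle phase by DNA amount; per plate, G2 fraction set to 0% for non-targeting and 100% for GMNN siRNA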
Direction: G2 robust z-score: higher = more G2 cells, more excess DNA replication
Rule for the call: 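Active siRNAs have a G2 robust z of 5 or more median absolute deviations over the median, which in these data means about 38% or higher of GMNN control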
Shown is a random part of about 59,000 reagents. About 1,550 of all reagents (2.6%) count as active. 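G2 share is only a proxy for re-replication; each gene was hit by three separate siRNAs, and active genes were retested.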 Reagents against one gene are numbered here. Not all columns of the deposit are shown. Not given: the amount of reagent.

AFG1L (AFG1 like ATPase) #1
- G2 robust z-score: -0.585
- call: inactive

AFG1L (AFG1 like ATPase) #2
- G2 robust z-score: 4.14
- call: inactive

AFG1L (AFG1 like ATPase) #3
- G2 robust z-score: 1.63
- call: inactive

NDUFS1 (NADH:ubiquinone oxidoreductase core subunit S1) #1
- G2 robust z-score: -0.303
- call: inactive

NDUFS1 (NADH:ubiquinone oxidoreductase core subunit S1) #2
- G2 robust z-score: -0.833
- call: inactive

NDUFS1 (NADH:ubiquinone oxidoreductase core subunit S1) #3
- G2 robust z-score: 0.699
- call: inactive

PSMA1 (proteasome 20S subunit alpha 1) #1
- G2 robust z-score: 2.29
- call: inactive

PSMA1 (proteasome 20S subunit alpha 1) #2
- G2 robust z-score: 2.65
- call: inactive

PSMA1 (proteasome 20S subunit alpha 1) #3
- G2 robust z-score: 0.955
- call: inactive

Next part; the last 3 above are carried over.
PSMA1 (proteasome 20S subunit alpha 1) #1
- G2 robust z-score: 2.29
- call: inactive

PSMA1 (proteasome 20S subunit alpha 1) #2
- G2 robust z-score: 2.65
- call: inactive

PSMA1 (proteasome 20S subunit alpha 1) #3
- G2 robust z-score: 0.955
- call: inactive

DMD (dystrophin) #1
- G2 robust z-score: 0.566
- call: inactive

DMD (dystrophin) #2
- G2 robust z-score: 2.55
- call: inactive

DMD (dystrophin) #3
- G2 robust z-score: 1.54
- call: inactive

LYG1 (lysozyme g1) #1
- G2 robust z-score: 0.259
- call: inactive

LYG1 (lysozyme g1) #2
- G2 robust z-score: -0.415
- call: inactive

LYG1 (lysozyme g1) #3
- G2 robust z-score: 0.0645
- call: inactive

TTLL5 (tubulin tyrosine ligase like 5) #1
- G2 robust z-score: -0.134
- call: inactive

TTLL5 (tubulin tyrosine ligase like 5) #2
- G2 robust z-score: -0.321
- call: inactive

TTLL5 (tubulin tyrosine ligase like 5) #3
- G2 robust z-score: -1.31
- call: inactive

SPAG11B (sperm associated antigen 11B) #1
- G2 robust z-score: -0.329
- call: inactive

SPAG11B (sperm associated antigen 11B) #2
- G2 robust z-score: 0.0396
- call: inactive

SPAG11B (sperm associated antigen 11B) #3
- G2 robust z-score: -0.531
- call: inactive

DYRK1A #1
- G2 robust z-score: -0.108
- call: inactive

DYRK1A #2
- G2 robust z-score: 8.53
- call: active

DYRK1A #3
- G2 robust z-score: -0.173
- call: inactive
